From article PMC13254595 come the findings set out here.

No constants are given. Whether binding was seen depends on the method and setting. Binding seen in cells or lysates may run through a third protein. Some results given as binding are weak or reduced against the parent protein; the word gives no strength.

Experiment [1] deals with T1, iron regulatory protein 1 (IRP1) (human (endogenous in PANC-1 and Patu-8988)) (UniProt P21399).
T1 sequence: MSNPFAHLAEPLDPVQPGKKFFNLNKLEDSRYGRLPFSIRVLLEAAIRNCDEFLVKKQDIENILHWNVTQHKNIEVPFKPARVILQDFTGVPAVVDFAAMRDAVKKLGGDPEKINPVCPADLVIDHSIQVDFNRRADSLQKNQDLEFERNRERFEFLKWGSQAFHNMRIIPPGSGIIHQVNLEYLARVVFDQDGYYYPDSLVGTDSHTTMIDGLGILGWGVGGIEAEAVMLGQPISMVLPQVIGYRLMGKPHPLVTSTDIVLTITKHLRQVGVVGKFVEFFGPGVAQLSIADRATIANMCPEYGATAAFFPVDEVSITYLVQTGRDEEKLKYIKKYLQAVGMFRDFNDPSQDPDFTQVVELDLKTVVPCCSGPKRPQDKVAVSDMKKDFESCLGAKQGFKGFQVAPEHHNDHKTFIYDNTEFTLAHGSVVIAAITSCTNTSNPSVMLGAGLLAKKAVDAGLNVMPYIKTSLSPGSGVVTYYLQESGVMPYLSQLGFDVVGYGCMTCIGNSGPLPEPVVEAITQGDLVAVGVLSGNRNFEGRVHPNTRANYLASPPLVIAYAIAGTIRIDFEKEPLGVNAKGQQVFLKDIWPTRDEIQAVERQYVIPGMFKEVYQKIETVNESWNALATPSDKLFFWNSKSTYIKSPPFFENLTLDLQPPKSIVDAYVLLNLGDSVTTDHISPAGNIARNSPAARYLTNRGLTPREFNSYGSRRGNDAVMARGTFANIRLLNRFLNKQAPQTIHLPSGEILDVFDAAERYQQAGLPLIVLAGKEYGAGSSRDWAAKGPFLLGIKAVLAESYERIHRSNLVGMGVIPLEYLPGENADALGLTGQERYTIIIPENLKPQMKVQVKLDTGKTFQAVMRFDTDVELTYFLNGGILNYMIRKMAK
Briefly: co-IP; cytoplasmic protein of PANC-1 and Patu-8988 cells, with or without hemin; IRP1 and ARID3A antibodies on protein A/G beads, Western blot. (Immunoblotting shows a protein as a band on a membrane.)

Experiment [2] deals with T1, iron regulatory protein 1 (IRP1) (human (endogenous in PANC-1 and Patu-8988)). The experiment is described as follows: co-IP; nuclear protein of PANC-1 and Patu-8988 cells, iron overload (hemin); IRP1 and ARID3A antibodies on protein A/G beads, Western blot.
Experiment [3] shares this target. Briefly: co-IP; total protein of PANC-1 and Patu-8988 cells; IRP1 and ARID3A antibodies on protein A/G beads, 1 h at room temperature, Western blot; also with or without pre-treatment with hemin (binding increased) or desferroxamine (binding inhibited).

B1: A + T rich interaction domain protein 3a (ARID3A) (protein, UniProt Q99856 1-593)
chain: MKLQAVMETLLQRQQRARQELEARQQLPPDPPAAPPGRARAAPDEDREPESARMQRAQMAALAAMRAAAAGLGHPASPGGSEDGPPGSEEEDAAREGTPGSPGRGREGPGEEHFEDMASDEDMKPKWEEEEMEEDLGEDEEEEEEDYEDEEEEEDEEGLGPPGPASLGTTALFPRKAQPPQAFRGDGVPRVLGGQERPGPGPAHPGGAAHVAPQLQPPDHGDWTYEEQFKQLYELDGDPKRKEFLDDLFSFMQKRGTPVNRIPIMAKQVLDLFMLYVLVTEKGGLVEVINKKLWREITKGLNLPTSITSAAFTLRTQYMKYLYPYECEKRGLSNPNELQAAIDSNRREGRRQSFGGSLFAYSPGGAHGMLSSPKLPVSSLGLAASTNGSSITPAPKIKKEEDSAIPITVPGRLPVSLAGHPVVAAQAAAVQAAAAQAAVAAQAAALEQLREKLESAEPPEKKMALVADEQQRLMQRALQQNFLAMAAQLPMSIRINSQASESRQDSAVNLTGTNGSNSISMSVEINGIMYTGVLFAQPPAPTPTSAPNKGGGGGGGSSSNAGGRGGNTGTSGGQAGPAGLSTPSTSTSNNSLP
For the molecule B1, the binding result in experiment [1] was “no binding (condition: cytoplasmic protein fraction)”; in experiment [2], “binds”; in experiment [3] it was “binds”.
